Several values for one entry are separate records, joined by “and”; a condition that tells them apart may be missing. Equal entries are not always repeated. Among all 360,000 compounds or so, about 1,800 (0.5%) were called active. Inconclusive results, whose numbers are uncertain, are shown with a selection of clear calls.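 How the source made its calls: active means mean inhibition of at least 75% with every replicate also reaching 75%; inconclusive means mean inhibition at least 75% but some replicate below; inactive means mean inhibition below 75%.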
Test: reduction of Shn3 3'UTR firefly luciferase signal, primary screen, Schnurri-3 inhibitor project, cell-based, Clone20 osteoblasts, set 2 (AID 588674);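 further: 0% = median of neutral control wells and 100% = pilot-screen positive control compound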
Conditions: Clone20 osteoblast Shn3 3'UTR firefly luciferase, 24 h; at 12.5 µM; hits give high values

**Q.** With `CC1CCCC(C)N1C(=O)COC(=O)CNC(=O)c1ccccc1F` (centres undefined) as the molecule, how does the inhibition read?
**A.** Its inhibition is inactive: 14.7%.

**Q.** With `COc1cc(/C=C2\CC(C(C)(C)C)C/C(=C\c3cc(OC)c(OC)c(OC)c3)C2=O)cc(OC)c1OC` (centres undefined) as the molecule, how does the inhibition read?
**A.** The inhibition was inconclusive: 86.6%.

**Q.** For `Cc1ccccc1N=Nc1ccc(O)c2ncccc12`, which inhibition is on record?
**A.** The inhibition was inconclusive: 85.7%.

**Q.** For `O=C(O)c1ccc(N=Nc2c(O)[nH]c3ccccc23)cc1`, which inhibition is on record?
**A.** The inhibition was inactive: 6.29%.

**Q.** With `Cc1cccc(NC(=O)c2cc3c(=O)n4ccccc4nc3n(CC(C)C)c2=N)c1` as the molecule, how does the inhibition read?
**A.** The inhibition was inactive: 1.22%.

**Q.** Which inhibition does the source give for `CCN1/C(=C/c2ccc3cc(C)ccc3[n+]2CC)Sc2cc(C)ccc21` here?
**A.** The inhibition was inconclusive: 85.4%.

**Q.** With `COCCN1C[C@@H](CO)O[C@@H](n2cnc3c(NC4CCCC4)ncnc32)C1` as the molecule, how does the inhibition read?
**A.** The inhibition was inactive: -1.37%.

**Q.** With `CC1=NN(c2ccccc2)C(=O)/C1=C/C=C/c1ccccc1` as the molecule, how does the inhibition read?
**A.** Its inhibition is inconclusive: 86.7%.

**Q.** For `Cc1ccc(NS(=O)(=O)c2ccc(C(=O)N3CCN(c4ncccn4)CC3)cc2)cc1`, which inhibition is on record?
**A.** Its inhibition is inconclusive: 81.4%.

**Q.** With `CC(/C=C1\SC(=O)N(CCCC(=O)O)C1=O)=C\c1ccccc1` as the molecule, how does the inhibition read?
**A.** The inhibition was inconclusive: 86.5%.

**Q.** With `CCCCCCCCCCOC(=O)Cn1c(COc2ccccc2C)[n+](C)c2ccccc21` as the molecule, how does the inhibition read?
**A.** The inhibition was inconclusive: 86.6%.

**Q.** With `Cc1ccc(NC(=O)c2oc3ccccc3c2COC(C)C)cc1S(=O)(=O)N1CCOCC1` as the molecule, how does the inhibition read?
**A.** The inhibition was active: 87.9%.

**Q.** For `N=C(N)SCc1cn(-c2ccccc2)nc1-c1ccc(Br)cc1`, which inhibition is on record?
**A.** Its inhibition is inconclusive: 80.1%.

**Q.** For `O=C(c1nnsc1S(=O)c1ccc(Cl)cc1)N1CCOCC1` (centres undefined), which inhibition is on record?
**A.** Its inhibition is active: 94.2%.

**Q.** Which inhibition does the source give for `Oc1ccccc1/C=N/Nc1nccnc1Cl` here?
**A.** The inhibition was inconclusive: 84.2%.

**Q.** Which inhibition does the source give for `O=C(/C=C/[C@H]1O[C@@H](n2cnc3c(NC(=O)c4ccccc4)ncnc32)[C@H](O)[C@@H]1O)NCCCc1ccccc1` here?
**A.** Its inhibition is inactive: -3.62%.

**Q.** Which inhibition does the source give for `O=C(Nc1ccc2nc3n(c(=O)c2c1)CCCCC3)c1c(F)ccc([N+](=O)[O-])c1F` here?
**A.** Its inhibition is active: 98.8%.

**Q.** Which inhibition does the source give for `Cc1cccc(/C=N/NC(=O)c2c(-c3ccccc3)noc2C)c1O` here?
**A.** Its inhibition is inconclusive: 85.9%.

**Q.** Which inhibition does the source give for `O=C(O)c1ccc(/C=C2\COc3ccccc3C2=O)cc1` here?
**A.** The inhibition was inactive: 9.1%.

**Q.** Which inhibition does the source give for `Oc1ccc(/C=N/Nc2nc(-c3ccccc3F)nc3ccccc23)c(O)c1` here?
**A.** The inhibition was inconclusive: 86.4%.

**Q.** For `O=C1ON=C(c2ccccc2)/C1=C/c1ccc(-c2ccccc2[N+](=O)[O-])o1`, which inhibition is on record?
**A.** Its inhibition is inconclusive: 88.7%.

**Q.** For `Cc1csc2ncnc(N3CCN(S(=O)(=O)c4cccc(C(F)(F)F)c4)CC3)c12`, which inhibition is on record?
**A.** The inhibition was inconclusive: 85.6%.

**Q.** With `CCc1ccc2c(c1)CCCN2C(=O)c1ccccc1C(=O)O` as the molecule, how does the inhibition read?
**A.** The inhibition was active: 87.6%.

**Q.** Which inhibition does the source give for `COc1ccccc1N(CC(=O)N/N=C/c1c(O)ccc2ccccc12)S(C)(=O)=O` here?
**A.** The inhibition was inactive: 73.3%.

**Q.** Which inhibition does the source give for `CC12CCC(C(=O)N(c3nccs3)C1=O)C2(C)C` (centres undefined) here?
**A.** Its inhibition is inconclusive: 80.7%.

**Q.** With `Cc1cc(Cl)c(S(=O)(=O)N2CCN(c3ccc(F)cc3)CC2)cc1OCC(=O)NC1CCCCC1` as the molecule, how does the inhibition read?
**A.** The inhibition was inconclusive: 80.9%.

**Q.** Which inhibition does the source give for `CN(Cc1ccc(OC(F)F)cc1)C(=O)c1cccc(S(=O)(=O)N2CCN(c3ccccc3)CC2)c1` here?
**A.** Its inhibition is inconclusive: 86.8%.

**Q.** For `CC1CCCCN1S(=O)(=O)Cc1ccccc1Cl` (centres undefined), which inhibition is on record?
**A.** Its inhibition is inactive: -12.4%.

**Q.** Which inhibition does the source give for `COCCN=c1scc(-c2cccs2)n1/N=C/c1ccc(O)c(O)c1O` here?
**A.** Its inhibition is inconclusive: 85.7%.

**Q.** With `CCc1c(C(=O)Nc2cc(C)ccc2OC)[nH]c(C)c1C(C)=O` as the molecule, how does the inhibition read?
**A.** Its inhibition is inconclusive: 80.1%.

**Q.** With `O=C(CNC(=O)c1ccccc1)N/N=C/c1cc(Br)ccc1O` as the molecule, how does the inhibition read?
**A.** The inhibition was inconclusive: 86.3%.

**Q.** With `O=C(Nc1ccc(Cl)cn1)c1ccc2c(Cl)c3c(nc2c1)CCC3` as the molecule, how does the inhibition read?
**A.** The inhibition was inactive: -25.7%.

**Q.** Which inhibition does the source give for `O=C(Cc1sc(-c2ccccc2Cl)nc1-c1ccccc1)Nc1ccc(F)cc1` here?
**A.** Its inhibition is inactive: -1.56%.

**Q.** For `CCC1C/C(=C\c2cc(OC)c(OC)cc2OC)C(=O)/C(=C/c2cc(OC)c(OC)cc2OC)C1` (centres undefined), which inhibition is on record?
**A.** Its inhibition is inconclusive: 85.1%.

**Q.** With `CCN(Cc1ccccc1)S(=O)(=O)c1ccc(S(=O)(=O)N(Cc2cccc(OC)c2)CC2CCCO2)cc1` (centres undefined) as the molecule, how does the inhibition read?
**A.** Its inhibition is inconclusive: 83.8%.

**Q.** For `COC(=O)C1C(=O)C2=C(CC1C)Nc1ccccc1NC2c1cccs1` (centres undefined), which inhibition is on record?
**A.** The inhibition was inactive: 10.6%.

**Q.** With `Oc1cc(-c2ccc(N3CCCCC3)nc2)cc2cccnc12` as the molecule, how does the inhibition read?
**A.** Its inhibition is inconclusive: 85.1%.

**Q.** For `CCCC(=O)NC(c1ccccc1Cl)c1ccc2cccnc2c1O` (centres undefined), which inhibition is on record?
**A.** Its inhibition is inconclusive: 85.1%.

**Q.** With `CC(C)(C)c1ccc2c(c1)OC(C(=O)N/N=C\c1ccc[nH]1)CO2` (centres undefined) as the molecule, how does the inhibition read?
**A.** The inhibition was inconclusive: 86.5%.

**Q.** Which inhibition does the source give for `CCCCCCCCNC(C)C(O)c1ccc(SC(C)C)cc1` (centres undefined) here?
**A.** The inhibition was active: 104% and active: 96%.

**Q.** Which inhibition does the source give for `Oc1ccc(/C=N/Nc2ccc(C(F)(F)F)cn2)c(O)c1` here?
**A.** Its inhibition is inconclusive: 85.5%.

**Q.** With `CCN(CC)S(=O)(=O)c1cc(NC(=O)CNc2cccc(S(=O)(=O)N3CCOCC3)c2)ccc1C` as the molecule, how does the inhibition read?
**A.** The inhibition was inconclusive: 85.7%.

**Q.** For `CN(C)c1ccc(C=c2c3ccccc3n3c2cc(-c2ccccc2)[n+]3C)cc1`, which inhibition is on record?
**A.** The inhibition was inconclusive: 85.9%.

**Q.** For `COc1cccc(/C=N/NC(=O)c2nc(-c3ccccc3)cc(-c3ccccc3)n2)c1O`, which inhibition is on record?
**A.** Its inhibition is inconclusive: 85%.

**Q.** Which inhibition does the source give for `CN1/C(=C\C(=O)CN2C(=O)NC3(CCCCCC3)C2=O)C(C)(C)c2ccccc21` here?
**A.** Its inhibition is inconclusive: 86.3%.

**Q.** For `Cc1cccc(-n2ncc3c2CCCC3NC(=O)c2ccncc2)c1C` (centres undefined), which inhibition is on record?
**A.** The inhibition was inconclusive: 82.1%.

**Q.** Which inhibition does the source give for `O=C(CC(O)(C(F)(F)F)C(F)(F)F)Nc1ccc(Cl)c(Cl)c1` here?
**A.** The inhibition was inconclusive: 89.1%.

**Q.** Which inhibition does the source give for `COc1cc(S(=O)(=O)N2CCC(c3nc4ccccc4s3)CC2)ccc1S(=O)(=O)NC1CCCC1` here?
**A.** Its inhibition is inconclusive: 80.4%.

**Q.** With `COc1cccc(/C=N/Nc2cc(-n3nc(C)cc3-c3ccccc3)ncn2)c1O` as the molecule, how does the inhibition read?
**A.** The inhibition was active: 90.1%.

**Q.** Which inhibition does the source give for `COc1cccc(CNCCc2c[nH]c3ccccc23)c1OCc1ccccc1` here?
**A.** Its inhibition is inconclusive: 86.9%.

**Q.** With `CC(=O)COc1cccc2ccc(/C=C/c3ccc(Br)s3)nc12` as the molecule, how does the inhibition read?
**A.** The inhibition was inactive: 14.2%.

**Q.** Which inhibition does the source give for `Cc1ccc([N+](=O)[O-])cc1NC(=O)Nc1cccc(F)c1` here?
**A.** The inhibition was inconclusive: 85.3%.

**Q.** With `COc1ccc(CNC(=O)CN2C(=O)C(c3ccccc3)Oc3cccnc32)cc1` (centres undefined) as the molecule, how does the inhibition read?
**A.** Its inhibition is inactive: 3.08%.

**Q.** With `CC(C)[C@H](NC(=O)c1ccc([N+](=O)[O-])cc1Cl)C(=O)N1CCN(C/C=C/c2ccccc2)CC1` as the molecule, how does the inhibition read?
**A.** Its inhibition is inactive: 15%.

From PubChem BioAssay AID588674 (Broad Institute, 2011)
